# Experimental data reported in the supplement of paper PMC10735217.
# Where a name gives a salt, the structure may show the parent alone. The list shows a part of the results. This data set is noisy: repeats of one test often differ as much as different tests do.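 The human kidney-derived cells carry a stably integrated construct of eight TEAD-binding elements driving luciferase, read by luminescence in a drug-repurposing library screen. A compound counts as a hit when its signal is more than five robust Z scores above the plate mean.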
# Tested on: HEK293A TEAD-LUC reporter
# Experiment: TEAD-luciferase reporter activity (YAP activation), robust Z score vs plate; higher = stronger YAP/TEAD activation
# Details: 24 h
SMILES,TEAD-luciferase reporter activity (compound concentration: 200 nM),TEAD-luciferase reporter activity (compound concentration: 2 uM),TEAD-luciferase reporter activity (compound concentration: 10 uM)
"N=C(N)c1ccc(OCCCCCOc2ccc(C(=N)N)cc2)cc1 [pentamidine isethionate, Oncozyme]",inactive: -0.236,inactive: 1.37,inactive: 2.56
CN(C)CC(Oc1ccccc1)Oc1ccccc1 [medifoxamine],inactive: -0.82,inactive: -0.851,inactive: -0.749
C[C@@H](CO)Oc1cc(Oc2ccc(S(C)(=O)=O)cc2)cc(C(=O)Nc2ccn(C)n2)c1,inactive: 1.25,inactive: 0.723,inactive: -0.575
CC(C)CC1Nc2cc(Cl)c(S(N)(=O)=O)cc2S(=O)(=O)N1 (centres undefined),inactive: 0.0965,inactive: 1.46,inactive: 0.374
CC(C)Oc1ccc(-c2ccccc2C(=O)Nc2ccc3cc(C(=O)N[C@H](C(=O)N(C)Cc4ccc(F)cc4)c4ccccc4)ccc3n2)cc1,inactive: -1.42,inactive: 1.32,inactive: 0.0515
CC(=O)[C@@]1(O)CCC2C3C=CC4=CC(=O)CC[C@]4(C)C3CC[C@@]21C (some centres undefined),inactive: -1.21,inactive: -0.536,inactive: 4.7
O=C(O)c1ccc(Cc2ccccc2)cn1,inactive: -0.902,inactive: -1.34,inactive: 2.03
CCCCCOc1ccc(C2SC(=O)NC2=O)cc1OCC (centres undefined),inactive: -0.0542,inactive: -0.642,inactive: -0.668
CCOc1ccc(-c2ccncc2)c(NC(=O)CC(C)N)c1 (centres undefined),inactive: 0.746,inactive: -0.794,inactive: 0.203
CCNC(=O)CCC/C=C\C[C@@H]1[C@@H](/C=C/[C@@H](O)CCc2ccccc2)[C@H](O)C[C@@H]1O [bimatoprost sustained release],–,inactive: -0.237,–
"CCNC(=O)CCC/C=C\C[C@@H]1[C@@H](/C=C/[C@@H](O)CCc2ccccc2)[C@H](O)C[C@@H]1O [bimatoprost sustained release, Allergan]",inactive: -0.72,–,inactive: -1.14
COc1ccccc1N1CCN(CCN(C(=O)C2CCCCC2)c2ccccc2[N+](=O)[O-])CC1,inactive: -1.14,inactive: -1.2,inactive: -0.447
CC/C=C\C/C=C\C/C=C\C/C=C\C/C=C\C/C=C\CCC(=O)NCCNC(=O)c1ccccc1O,inactive: -2.24,inactive: -0.84,inactive: -0.43
FC(F)(F)c1cc(NC(=S)Nc2ccc(Br)cc2-c2nnn[nH]2)cc(C(F)(F)F)c1,inactive: -0.578,inactive: -1.07,inactive: -1.02
Cc1c(-c2ccc(-c3ccccc3F)cc2)nc2ccc(F)cc2c1C(=O)O [Brequinar soldium salt hydrate],inactive: 0.151,inactive: -1.08,inactive: 0.223
COc1ccc2[nH]c(C(=O)c3ccccc3)cc2c1,inactive: -0.0901,active: 10.7,active: 5.16
Cc1cc2ncc(C(=O)NC3CCCCCC3)cn2n1,inactive: -0.303,–,inactive: -0.165
Cc1ccc(NS(=O)(=O)c2ccccc2)c(C(=O)O)c1,inactive: -1.3,inactive: 0.298,inactive: 0.291
CCC12CCCN3CCc4c(n(c5ccccc45)C(O)C1)C32 (centres undefined) [Vincanol],active: 6.93,inactive: -0.575,inactive: 1.04
Cn1cncc1[C@](N)(c1ccc(C#N)cc1)c1cc2cc(C#N)cc(-c3cccc(F)c3)c2o1,inactive: -0.19,inactive: -0.983,inactive: -1.16
C[N+](C)(CCOc1ccccc1)Cc1cccs1 [Thenium Closylate],inactive: -1.37,inactive: -0.409,inactive: 0.948
C=CC(=O)Nc1ccc2ncnc(Nc3ccc(OCc4cccc(F)c4)c(Cl)c3)c2c1 [allitinib],inactive: -1.74,inactive: -1.78,inactive: 0.938
CSCC(=O)O[C@]1(C(=O)CCl)CC[C@H]2[C@H]3CCC4=CC(=O)CC[C@@]4(C)[C@@H]3[C@@H](O)C[C@@]21C,inactive: -0.279,inactive: -1.35,inactive: 1.2
Nc1nc2c(s1)CCc1nc3ccccn3c1-2,inactive: -1,inactive: 0.319,inactive: 2.14
CCn1nc(C2CCN(C(=O)CCO)CC2)nc1-c1cnc(N)c(-c2nnc(C(C)(C)C)o2)n1,inactive: -1.21,inactive: -0.674,inactive: -1.38
COc1ccc(/C(=C(\c2ccccc2)[N+](=O)[O-])c2ccc(OCCN3CCCC3)cc2)cc1,inactive: -0.415,inactive: 0.552,active: 7.87

# Rewritten with bars between the fields: entries from further up.
SMILES | TEAD-luciferase reporter activity (compound concentration: 200 nM) | TEAD-luciferase reporter activity (compound concentration: 2 uM) | TEAD-luciferase reporter activity (compound concentration: 10 uM)
CCn1nc(C2CCN(C(=O)CCO)CC2)nc1-c1cnc(N)c(-c2nnc(C(C)(C)C)o2)n1 | inactive: -1.21 | inactive: -0.674 | inactive: -1.38
COc1ccc(/C(=C(\c2ccccc2)[N+](=O)[O-])c2ccc(OCCN3CCCC3)cc2)cc1 | inactive: -0.415 | inactive: 0.552 | active: 7.87
